Cell viability data for 99 compounds are collected here from the supplement of paper PMC11150407.

In all, about 3,000 compounds went through this assay and about 45 (2%) showed an effect of 50% or more. Some of the results follow.

In this test the test system is MOLM1 and UCSD/AML1 (averaged). Briefly: cell viability relative to DMSO control (POC); higher = less growth inhibition. The note with it: 1 µM; 72 h. Here is the method:
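Primary viability screen in the 3q26 EVI1-high AML cell lines MOLM1 and UCSD/AML1, compounds at 1 uM for 72 h. ATP CellTiter-Glo read-out given as percent viable over DMSO control (POC), averaged over duplicates. This mapping covers the TimTec NDL-3000 natural derivative library, whose compounds are identified by TimTec catalogue codes (ST...).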
With `COc1cc(OC)cc(C(=O)N2CCN(C(=O)c3ccccc3)CC2)c1`, the cell viability – broadly, a read-out of living cells in per cent, often relative to untreated cells – came to 102%. As for `Cc1cc(=O)oc2c(C)c(O)ccc12`, the figure is 97.2%.

Turning to `O=C(NCc1ccco1)c1cc2ccccc2oc1=O`, the cell viability stood at 98.8%. Consider `CCOc1ccccc1C(=O)NCN1CCc2ccccc2C1`, for which the cell viability stood at 106%. In the case of `COc1cc(C(=O)NCCC2CCCC2)cc(OC)c1OC`, the cell viability was found to be 106%. In the case of `O=C(Cn1c(=O)cc(C(=O)N2CCOCC2)c2ccccc21)Nc1cccc(C(F)(F)F)c1`, the cell viability was 86.9%. As to `COC(=O)c1ccc(NC(=O)/C=C/c2ccc(OC)c(OC)c2)cc1`, the cell viability amounted to 94.8%. In the case of `O=C(COc1ccc(Cl)cc1)c1ccc(O)cc1O`, the cell viability turned out to be 90.8%. On to `O=C(O)C(Cc1ccccc1)n1cccc1` (centres undefined), for which the cell viability came out at 102%. As for `Cc1cccc(-c2nc(CSc3nc4c(=O)[nH]cnc4n3-c3ccccc3)c(C)o2)c1`, the cell viability was 99.7%. For `CC1(C(=O)O)CCC2(C)CCC3(C)C(=CC(=O)C4C5(C)CCC(OC6OC(C(=O)O)C(O)C(O)C6OC6OC(C(=O)O)C(O)C(O)C6O)CC5CCC43C)C2C1.CC1(C(=O)O)CCC2(C)CCC3(C)C(=CC(=O)C4C5(C)CCC(OC6OC(C(=O)O)C(O)C(O)C6OC6OC(C(=O)O)C(O)C(O)C6O)CC5CCC43C)C2C1.NCCCN.NCCCN.[Co]` (centres undefined), the cell viability is 94.1%. As to `CCOc1ccc2oc(=O)cc(CN3CCN(CC(=O)Nc4ccc(F)cc4)CC3)c2c1`, the cell viability is 100%.

With `CCOC(=O)c1ccc(NC(=O)CCC(=O)O)cc1`, the cell viability was 105%. With `COc1ccc2c(c1)c(CC(=O)NCCOc1c(C)cccc1C)c(C)n2C(=O)c1ccc(Cl)cc1`, the cell viability amounted to 86.2%. In the case of `Cc1c(-c2ccccc2Cl)c(=O)oc2cc(O)ccc12`, the cell viability stood at 92.8%. Consider `COCc1nnc(SCC(=O)c2ccc3c(c2)OCO3)n1-c1ccccc1`, for which the cell viability was 106%.

On to `Cn1c2c(c(=O)n(C)c1=O)C(=O)C(=O)N(Cc1ccccc1)C2=O`, for which the cell viability turned out to be 97.6%.

On to `Cc1cc(C(=O)c2ccccc2)ccc1OC(=O)CN1C(=O)c2ccccc2C1=O`, for which the cell viability was found to be 94.9%.

For `COc1cccc(-c2oc3ccc(OC)cc3c(=O)c2O)c1`, the cell viability stood at 85.1%. For `CCOC(=O)N1CCc2[nH]c3ccc(C)cc3c2C1` the value was 42.4%.

With `COc1cc(C)c(C)cc1S(=O)(=O)NCCc1c(C)[nH]c2ccc(F)cc12`, the cell viability was 92.9%. Consider `Cc1ccc(O)c(N=Cc2c(O)c(O)c(C(C)C)c3cc(C)c(-c4c(C)cc5c(C(C)C)c(O)c(O)c(C=Nc6cc(C)ccc6O)c5c4O)c(O)c23)c1`, for which the cell viability came out at 109%. As for `COc1cc(C=O)ccc1OCC(=O)N1CCCCC1`, the figure is 101%; as for `CCCCCCCCCC(=O)Oc1c(-c2ccc(OC)cc2)oc2ccccc2c1=O`, 102%; as for `O=C(O)C(O)Cc1ccccc1` (centres undefined), 104%.

For `CCOC(=O)c1c(CNc2cccc(Cl)c2)n(-c2ccccc2)c2cc(Br)c(OC)cc12`, the cell viability came out at 109%. With `COc1cc(OC)cc(C(=O)NCCCn2c3ccccc3c3ccccc32)c1`, the cell viability is 100%. For the compound `CCOC(=O)C1=C(N)Oc2c(oc(CO)cc2=O)C1c1ccccc1[N+](=O)[O-]` (centres undefined), the cell viability was 94.8%. Consider `COc1ccc(C(=O)Nc2ccc3c(c2)CCCN3C(=O)C(C)(C)C)cc1OC`, for which the cell viability amounted to 96.1%.

Take `Cc1cc2c(C(C)C)c(O)c(O)c(C=NC3CCCCC3Cc3ccco3)c2c(O)c1-c1c(C)cc2c(C(C)C)c(O)c(O)c(C=NC3CCCCC3Cc3ccco3)c2c1O` (centres undefined): the cell viability was determined as 94.9%. `CCN(CC)CCOC(=O)C1(C)CCC2(C)CCC3(C)C(=CC(=O)C4C5(C)CCC(OC(C)=O)C(C)(C)C5CCC43C)C2C1` (centres undefined): the cell viability came out at 85.1%. Consider `Cc1ccc(-n2c(SCC(=O)N3CCOc4ccc(C)cc43)nc3c(=O)[nH]cnc32)cc1`, for which the cell viability was 88.2%. For `O=C1/C(=C\c2ccc(O)cc2)N=C(c2ccccc2)N1Nc1nc(Nc2ccc([N+](=O)[O-])cc2O)nc(Nc2ccc([N+](=O)[O-])cc2O)n1`, the cell viability is 74.5%. As for `COc1cc(C(C)=O)ccc1OCc1ccccc1Cl`, the figure is 99.7%; as for `CNC(=O)c1cc(OC)c(OC)c(OC)c1[N+](=O)[O-]`, 103%. In the case of `O=C(OCC1CCCN2CCCCC12)c1ccccc1O` (centres undefined), the cell viability was 96.9%. As for `CCN(CC)C(=O)c1cc(=O)n(CC(=O)Nc2ccc(Cl)cc2)c2ccccc12`, the cell viability stood at 98%. For the compound `COc1ccc(/C=C/C(=O)c2ccccc2)cc1COc1ccc(NC(C)=O)cc1`, the cell viability stood at 40%. For the compound `CC1CC[C@@H](C(C)(C)c2ccccc2)C(O)C1` (some centres undefined), the cell viability was found to be 101%.

On to `Cc1ccc(NC(=O)CSc2nc3c(=O)[nH]cnc3n2-c2ccccc2)cc1F`, for which the cell viability was 103%. Take `Cc1[nH]c2ccc(OC(F)(F)F)cc2c1CCNC(=O)C1CC=CCC1C(=O)O` (centres undefined): the cell viability stood at 97.6%. For `COC(=O)/C(C#N)=C\c1ccc(OC(C)=O)c(OC)c1`, the cell viability came to 102%. In the case of `CC(NC(=O)Nc1ccccc1[N+](=O)[O-])C(=O)O` (centres undefined), the cell viability worked out at 104%.

Take `COc1cc(C(=O)Nc2cc(C)c(OCC(=O)N3CCOCC3)c(C)c2)cc(OC)c1OC`: the cell viability was determined as 99.9%. For `COc1ccc(C(=O)NC(CC(C)C)C(=O)O)cc1` (centres undefined), the cell viability stood at 100%. Turning to `COc1ccc(/C=C/C(=O)Nc2ccc(NC(C)=O)cc2)cc1`, the cell viability came out at 98.9%. For `Cc1cc(C)c2c(O)c(-c3ccccc3)c(=O)[nH]c2c1`, the cell viability was found to be 103%. Turning to `COc1ccc(C(=O)NCN2CCN(c3cccc(Cl)c3)CC2)cc1OC`, the cell viability was 92.4%. For `Cc1c(Cl)cccc1NC(=O)CSc1nc2c(=O)[nH]cnc2n1C`, the cell viability stood at 97.1%. For `O=C(OC1C(COC(=O)c2ccc(Cl)cc2Cl)OC(n2ccc(=O)n(C(=O)c3ccc(Cl)cc3Cl)c2=O)C1OC(=O)c1ccccc1)c1ccccc1` (centres undefined) the value was 94.8%. Regarding `CNC(=O)c1cc(=O)n(CC(=O)Nc2ccc(Br)cc2)c2ccccc12`, the cell viability was 92.6%.

Take `COc1cc(C(=O)OCc2ccc(F)cc2)c(Br)c(OC)c1OC`: the cell viability was 101%.

Take `CCCC1=C(C(=O)OCC)C(c2cc(Br)c(O)c(OC)c2)NC(=O)N1` (centres undefined): the cell viability was 113%. On to `O=C(CC(Nc1ccc(I)cc1)c1ccccc1)c1ccc2c(c1)OCO2` (centres undefined), for which the cell viability amounted to 95.7%. As for `C=CC[C@H]1Cc2c(Br)cc(Br)c(Br)c2[C@H](CC=C)N1`, the figure is 95.9%; as for `CCOc1cc(C2C(C(=O)OCCc3ccccc3)=C(C)NC3=C2C(=O)CC(c2ccc(Cl)cc2)C3)ccc1O` (centres undefined), 99.9%.

With `Cn1c(SCc2c(F)cccc2Cl)nc2c(=O)[nH]cnc21`, the cell viability came out at 93.4%. On to `O=C(c1cnn2c(C(F)(F)F)cc(-c3ccc(Br)cc3)nc12)N1CCc2ccccc2C1`, for which the cell viability turned out to be 102%. Turning to `COc1cc(C2C3CCCCC3(O)CCN2CC(=O)Nc2ccc(C)cc2)cc(OC)c1OC` (centres undefined), the cell viability is 90.8%. Take `CC(=O)Oc1cc(OC(C)=O)c2c(c1)O[C@H](c1ccccc1)CC2=O`: the cell viability was found to be 88.6%. Take `N=C(N=C(N)N)N1CCSCC1`: the cell viability came to 100%. Regarding `CCOc1ccccc1NC(=O)CSc1nc2c(=O)[nH]cnc2n1-c1ccc(C)cc1`, the cell viability was 103%. Turning to `COc1ccc(C(=O)CSc2nc(-c3ccccc3)cc(-c3ccc(F)cc3)c2C#N)cc1OC`, the cell viability was 93.4%.

For `O=c1c(O)c(-c2ccc(O)cc2)oc2ccccc12`, the cell viability was 96.8%. Consider `Cc1ccc(-c2nc(CSc3nc4c(=O)[nH]c(C)nc4n3C)c(C)o2)cc1`, for which the cell viability turned out to be 98.6%.

As for `O=C1O[C@@H]2[C@@H](O)[C@H](O)O[C@@H]2[C@H]1O`, the cell viability is 97.7%. For the compound `COc1cccc(OC)c1OCc1cc(=O)[nH]c2ccccc12`, the cell viability is 101%. With `O=C(CSc1nc2c(=O)[nH]cnc2n1-c1ccccc1)Nc1ccc(F)c(Cl)c1`, the cell viability came out at 97.8%. With `COc1ccc2occ(C=O)c(=O)c2c1`, the cell viability is 120%. For `COc1cccc(-c2oc3ccccc3c(=O)c2O)c1OC` the value was 90.6%. Take `Cc1ccc2c(=O)cc(-c3c(Cl)cccc3Cl)oc2c1`: the cell viability was 119%. As for `N=c1ccc2c(-c3ccccc3C(=O)O)c3ccc(N)cc3oc-2c1`, the cell viability amounted to 93.1%. For `COc1cc(C(=O)NC(c2ccccc2)c2c(O)ccc3ccccc23)cc(OC)c1OC` (centres undefined) the value was 93%.

Consider `CC1CCCC(C)N1Cc1c(O)ccc2c(-c3ccccc3)cc(=O)oc12` (centres undefined), for which the cell viability came to 89.9%. On to `COc1cc(CCC(=O)Nc2sc(C)c(C)c2C#N)cc(OC)c1OC`, for which the cell viability was 101%. With `CC(C)(C)CC(C)(C)NC(=O)CSc1ncnc2nc[nH]c12`, the cell viability is 97%. Take `Cc1[nH]c2c(C)ccc(F)c2c1CCNC(=O)c1ccc(Br)cc1`: the cell viability was 107%. As to `NC(Cc1ccccc1)C(=O)O` (centres undefined), the cell viability is 95.1%.

On to `CC(C)CC(N)C(N)=O` (centres undefined), for which the cell viability is 94.1%. As to `O=c1oc2ccccc2c(NCCOc2ccccc2)c1[N+](=O)[O-]`, the cell viability came out at 97.5%. As to `O=C(/C=C/c1ccccc1)OCCN(C1=NS(=O)(=O)c2ccccc21)c1ccccc1Cl`, the cell viability came out at 99.3%. Take `Cc1cccc(Cn2c(SCC(O)CO)nc3c2c(=O)[nH]c(=O)n3C)c1` (centres undefined): the cell viability was determined as 103%. Take `COc1cc(C=O)ccc1OC(=O)N1CCOCC1`: the cell viability amounted to 90%. Consider `CCc1ccc2oc(=O)cc(CN3CCN(C(=O)c4ccco4)CC3)c2c1`, for which the cell viability was 105%. Take `COc1ccc(CCNC(=O)CCCCl)cc1OC`: the cell viability was found to be 94.6%. As for `Nc1nc2c(ncn2C2OC(COP(=O)(O)O)C(O)C2O)c(=O)[nH]1` (centres undefined), the cell viability stood at 101%. With `COc1ccc(C(=O)NCCc2c(C)[nH]c3c(Cl)cccc23)cc1OC`, the cell viability stood at 88.4%. For `CCOc1cc(/C=C2\Oc3ccc(C(=O)OC)cc3C2=O)ccc1O` the value was 16.8%; for `COc1ccc(/C=C2\Oc3cc(OCC(=O)OC(C)C)ccc3C2=O)cc1`, 92%.

On to `COc1ccc2c(=O)cc(C(Cl)(Cl)Cl)oc2c1`, for which the cell viability was determined as 5.13%.

As to `N#CC1=C(N)Oc2c(oc(CO)cc2=O)C1c1ccnc2ccccc12` (centres undefined), the cell viability came to 103%.

In the case of `CCCc1ccc(OCCn2c(C)c(C(=O)OCc3ccccc3)c3cc(O)c4ccccc4c32)cc1`, the cell viability came to 91.9%. For the compound `O=c1c(Cc2ccccc2)c(O)c2ccccc2n1Cc1ccccc1`, the cell viability turned out to be 95.6%. As for `CCOc1ccc(-c2nc(CSc3nc4c(=O)[nH]cnc4n3-c3ccc(C)cc3)c(C)o2)cc1`, the figure is 103%; as for `O=c1[nH]c(=O)n(-c2ccccc2)c2c1C(C(F)(F)F)(C(F)(F)F)N=C(c1cccs1)N2`, 96.5%; as for `CCCNC(=O)c1cc(=O)n(CC(=O)Nc2c(C)cccc2C)c2ccccc12`, 91%. Regarding `Cc1cc2c(c(O)c1-c1c(C)cc3c(c1O)/C(=C/Nc1c(C)n(C)n(-c4ccccc4)c1=O)C(=O)C(O)=C3C(C)C)/C(=C/Nc1c(C)n(C)n(-c3ccccc3)c1=O)C(=O)C(O)=C2C(C)C`, the cell viability is 84.6%. As to `O=C(/C=C/c1ccc(Br)cc1)c1ccccc1O`, the cell viability was found to be 94.6%.

Regarding `N#Cc1nc2ccccc2n1C(=O)CN1CCc2ccccc2C1`, the cell viability turned out to be 92.6%.
